Earlier results as cited in PMC3602246 (BMC Pharmacology & Toxicology, 2013).

Tests used:
[1] = molecular target: MOR; conditions: read-out: Ki, affinity binding to the MOR; cited from earlier work
[2] = molecular target: DOR; conditions: read-out: Ki, affinity binding to the DOR; cited from earlier work
[3] = molecular target: KOR; conditions: read-out: Ki, affinity binding to the KOR; cited from earlier work

COc1cccc(C2(O)CCCCC2CN(C)C)c1 (stereo not drawn) [Tramadol]
Ki [1]: 2.4 µM
Ki [2]: 57.7 µM
Ki [3]: 42.7 µM
